{"source": "PubChem BioAssay AID652243 (Drosophila RNAi Screening Center, 2013)", "screen": "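Fly genes required for human androgen receptor driven transcription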 (primary screen)", "cells": "Drosophila S2R+ cells", "reagent": "long dsRNA against Drosophila genes", "timing": "72 h (48 h, then 24 h hormone)", "treatment": "synthetic androgen R1881 at 10 nM for 24 h", "read-out": "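Per-well raw luminescence of the androgen-driven firefly reporter and of the Renilla control, two replicates each, without normalisation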", "direction": "firefly reporter light: higher = more light from androgen-responsive reporter; Renilla control light: higher = more constitutive control signal (cell number, transfection)", "rule for the call": "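Hit when the log firefly-to-Renilla ratio dropped or increased by a fixed fold versus the mean of GFP or LacZ controls across duplicate plates; lowering cut given as 1.5 and as 3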", "calls": "active = hit: reporter lowered or raised; inactive = no hit", "note": "In all, the deposit lists about 24,000 reagents; below is a random part of those with a known target gene and a result. Over the whole deposit, 246 (1%) were called active. 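Plates not normalised; calls are printed but the firefly/Renilla ratio behind them is not deposited; fold cut for lowering reported inconsistently.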 Raw values vary from plate to plate and are shown uncorrected. Unmarked entries are inactive. A plus sign joins genes that one reagent is predicted to hit. The record does not give: the amount of reagent."}
{"gene knocked down":"Cpsf160 (Cleavage and polyadenylation specificity factor 160)","amplicon":"DRSC05968","firefly reporter light, replicate 1":1.18e6,"firefly reporter light, replicate 2":1.28e6,"Renilla control light, replicate 1":1.90e6,"Renilla control light, replicate 2":2.19e6}
{"gene knocked down":"CG14194","amplicon":"DRSC19549","firefly reporter light, replicate 1":1.48e5,"firefly reporter light, replicate 2":1.04e5,"Renilla control light, replicate 1":6.09e5,"Renilla control light, replicate 2":4.08e5}
{"gene knocked down":"CG12481","amplicon":"DRSC19461","firefly reporter light, replicate 1":3.90e5,"firefly reporter light, replicate 2":4.40e5,"Renilla control light, replicate 1":2.31e6,"Renilla control light, replicate 2":2.47e6}
{"gene knocked down":"Ir76a (Ionotropic receptor 76a)","amplicon":"DRSC10987","firefly reporter light, replicate 1":37876,"firefly reporter light, replicate 2":48624,"Renilla control light, replicate 1":4.65e5,"Renilla control light, replicate 2":4.40e5}
{"gene knocked down":"Art8 (Arginine methyltransferase 8)","amplicon":"DRSC02530","firefly reporter light, replicate 1":2.16e5,"firefly reporter light, replicate 2":2.63e5,"Renilla control light, replicate 1":1.53e6,"Renilla control light, replicate 2":1.63e6}

Laid out differently: results already given
gene knocked down | amplicon | firefly reporter light, replicate 1 | firefly reporter light, replicate 2 | Renilla control light, replicate 1 | Renilla control light, replicate 2
Ir76a (Ionotropic receptor 76a) | DRSC10987 | 37876 | 48624 | 4.65e5 | 4.40e5
Art8 (Arginine methyltransferase 8) | DRSC02530 | 2.16e5 | 2.63e5 | 1.53e6 | 1.63e6

Continued.
{"gene knocked down":"Taldo (Transaldolase)","amplicon":"DRSC04320","firefly reporter light, replicate 1":8.57e5,"firefly reporter light, replicate 2":8.71e5,"Renilla control light, replicate 1":1.25e6,"Renilla control light, replicate 2":1.27e6}
{"gene knocked down":"Taldo (Transaldolase)","amplicon":"DRSC27470","firefly reporter light, replicate 1":3.76e5,"firefly reporter light, replicate 2":3.57e5,"Renilla control light, replicate 1":8.02e5,"Renilla control light, replicate 2":7.58e5}
{"gene knocked down":"CG1632","amplicon":"DRSC17558","firefly reporter light, replicate 1":5.93e5,"firefly reporter light, replicate 2":1.14e6,"Renilla control light, replicate 1":4.46e5,"Renilla control light, replicate 2":6.55e5}
{"gene knocked down":"CG1632","amplicon":"DRSC18110","firefly reporter light, replicate 1":5.00e5,"firefly reporter light, replicate 2":4.90e5,"Renilla control light, replicate 1":2.88e6,"Renilla control light, replicate 2":4.07e6}
{"gene knocked down":"TBC1d7 + mRpS24","amplicon":"DRSC14611","firefly reporter light, replicate 1":2.48e5,"firefly reporter light, replicate 2":2.22e5,"Renilla control light, replicate 1":1.92e6,"Renilla control light, replicate 2":2.79e6}
{"gene knocked down":"CG5946","amplicon":"DRSC10560","firefly reporter light, replicate 1":1.47e5,"firefly reporter light, replicate 2":1.60e5,"Renilla control light, replicate 1":1.49e6,"Renilla control light, replicate 2":1.55e6}
{"gene knocked down":"CG2540","amplicon":"DRSC19856","firefly reporter light, replicate 1":82215,"firefly reporter light, replicate 2":58960,"Renilla control light, replicate 1":7.64e5,"Renilla control light, replicate 2":7.09e5}
